# Experimental data: the supplement of paper PMC10849652
# By UniProt entry, the sequences of proteins in these tests, tags left out. Where a name states a change or a piece, a line headed by the entry shows the natural chain unless it says otherwise.
# UniProt P61086: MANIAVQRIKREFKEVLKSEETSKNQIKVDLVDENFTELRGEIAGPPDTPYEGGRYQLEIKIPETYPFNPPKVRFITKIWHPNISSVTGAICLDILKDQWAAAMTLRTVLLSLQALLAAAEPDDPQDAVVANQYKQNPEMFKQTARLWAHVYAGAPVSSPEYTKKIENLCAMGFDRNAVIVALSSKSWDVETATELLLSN
# UniProt O95155, whole entry, looked up: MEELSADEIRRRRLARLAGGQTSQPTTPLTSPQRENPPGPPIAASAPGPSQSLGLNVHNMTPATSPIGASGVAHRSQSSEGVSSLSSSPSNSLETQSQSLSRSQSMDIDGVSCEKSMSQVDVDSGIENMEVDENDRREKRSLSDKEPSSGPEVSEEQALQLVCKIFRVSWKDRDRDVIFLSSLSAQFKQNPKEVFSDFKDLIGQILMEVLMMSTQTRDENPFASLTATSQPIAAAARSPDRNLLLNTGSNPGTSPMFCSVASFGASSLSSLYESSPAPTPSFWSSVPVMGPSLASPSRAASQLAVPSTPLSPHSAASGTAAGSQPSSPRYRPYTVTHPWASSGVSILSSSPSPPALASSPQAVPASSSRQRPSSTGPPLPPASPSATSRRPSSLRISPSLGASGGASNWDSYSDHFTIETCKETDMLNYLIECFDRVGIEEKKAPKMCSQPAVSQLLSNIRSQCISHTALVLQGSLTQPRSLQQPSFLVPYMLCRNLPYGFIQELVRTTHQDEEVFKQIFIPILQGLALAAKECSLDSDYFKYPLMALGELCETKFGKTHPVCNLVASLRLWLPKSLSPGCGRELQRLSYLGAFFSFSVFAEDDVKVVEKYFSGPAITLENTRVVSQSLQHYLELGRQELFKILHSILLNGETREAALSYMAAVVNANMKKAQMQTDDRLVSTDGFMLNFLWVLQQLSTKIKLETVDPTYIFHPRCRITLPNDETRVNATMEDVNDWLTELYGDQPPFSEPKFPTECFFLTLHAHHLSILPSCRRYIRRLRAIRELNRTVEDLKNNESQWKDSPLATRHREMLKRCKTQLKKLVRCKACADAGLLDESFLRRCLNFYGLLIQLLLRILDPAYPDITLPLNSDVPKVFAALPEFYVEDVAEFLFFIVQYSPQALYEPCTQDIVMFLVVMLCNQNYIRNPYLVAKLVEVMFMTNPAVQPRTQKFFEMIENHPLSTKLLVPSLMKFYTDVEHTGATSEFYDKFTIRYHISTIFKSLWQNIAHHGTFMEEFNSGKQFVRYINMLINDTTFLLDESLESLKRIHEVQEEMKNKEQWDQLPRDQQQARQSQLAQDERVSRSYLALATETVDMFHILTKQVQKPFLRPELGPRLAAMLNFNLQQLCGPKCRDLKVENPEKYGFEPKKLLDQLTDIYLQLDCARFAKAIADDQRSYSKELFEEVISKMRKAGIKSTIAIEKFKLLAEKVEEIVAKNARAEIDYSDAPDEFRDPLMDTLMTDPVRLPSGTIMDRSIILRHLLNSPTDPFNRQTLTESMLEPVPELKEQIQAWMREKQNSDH
# UniProt Q9BRA2: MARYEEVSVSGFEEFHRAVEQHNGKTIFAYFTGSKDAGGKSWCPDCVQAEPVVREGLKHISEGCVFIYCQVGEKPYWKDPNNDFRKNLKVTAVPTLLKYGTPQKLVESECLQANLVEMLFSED
# UniProt Q9H4B7, whole entry, looked up: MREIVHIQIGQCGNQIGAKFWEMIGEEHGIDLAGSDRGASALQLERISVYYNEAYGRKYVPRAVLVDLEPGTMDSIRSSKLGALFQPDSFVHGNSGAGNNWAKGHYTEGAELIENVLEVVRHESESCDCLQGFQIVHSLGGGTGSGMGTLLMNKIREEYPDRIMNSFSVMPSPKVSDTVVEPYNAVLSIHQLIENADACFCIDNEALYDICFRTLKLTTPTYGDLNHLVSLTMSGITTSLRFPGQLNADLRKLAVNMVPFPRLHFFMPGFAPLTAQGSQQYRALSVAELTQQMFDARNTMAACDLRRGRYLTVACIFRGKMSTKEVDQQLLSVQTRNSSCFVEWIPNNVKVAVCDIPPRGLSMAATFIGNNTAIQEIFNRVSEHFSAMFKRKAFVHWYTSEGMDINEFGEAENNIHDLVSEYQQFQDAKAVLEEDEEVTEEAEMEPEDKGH
# UniProt Q5TAX3: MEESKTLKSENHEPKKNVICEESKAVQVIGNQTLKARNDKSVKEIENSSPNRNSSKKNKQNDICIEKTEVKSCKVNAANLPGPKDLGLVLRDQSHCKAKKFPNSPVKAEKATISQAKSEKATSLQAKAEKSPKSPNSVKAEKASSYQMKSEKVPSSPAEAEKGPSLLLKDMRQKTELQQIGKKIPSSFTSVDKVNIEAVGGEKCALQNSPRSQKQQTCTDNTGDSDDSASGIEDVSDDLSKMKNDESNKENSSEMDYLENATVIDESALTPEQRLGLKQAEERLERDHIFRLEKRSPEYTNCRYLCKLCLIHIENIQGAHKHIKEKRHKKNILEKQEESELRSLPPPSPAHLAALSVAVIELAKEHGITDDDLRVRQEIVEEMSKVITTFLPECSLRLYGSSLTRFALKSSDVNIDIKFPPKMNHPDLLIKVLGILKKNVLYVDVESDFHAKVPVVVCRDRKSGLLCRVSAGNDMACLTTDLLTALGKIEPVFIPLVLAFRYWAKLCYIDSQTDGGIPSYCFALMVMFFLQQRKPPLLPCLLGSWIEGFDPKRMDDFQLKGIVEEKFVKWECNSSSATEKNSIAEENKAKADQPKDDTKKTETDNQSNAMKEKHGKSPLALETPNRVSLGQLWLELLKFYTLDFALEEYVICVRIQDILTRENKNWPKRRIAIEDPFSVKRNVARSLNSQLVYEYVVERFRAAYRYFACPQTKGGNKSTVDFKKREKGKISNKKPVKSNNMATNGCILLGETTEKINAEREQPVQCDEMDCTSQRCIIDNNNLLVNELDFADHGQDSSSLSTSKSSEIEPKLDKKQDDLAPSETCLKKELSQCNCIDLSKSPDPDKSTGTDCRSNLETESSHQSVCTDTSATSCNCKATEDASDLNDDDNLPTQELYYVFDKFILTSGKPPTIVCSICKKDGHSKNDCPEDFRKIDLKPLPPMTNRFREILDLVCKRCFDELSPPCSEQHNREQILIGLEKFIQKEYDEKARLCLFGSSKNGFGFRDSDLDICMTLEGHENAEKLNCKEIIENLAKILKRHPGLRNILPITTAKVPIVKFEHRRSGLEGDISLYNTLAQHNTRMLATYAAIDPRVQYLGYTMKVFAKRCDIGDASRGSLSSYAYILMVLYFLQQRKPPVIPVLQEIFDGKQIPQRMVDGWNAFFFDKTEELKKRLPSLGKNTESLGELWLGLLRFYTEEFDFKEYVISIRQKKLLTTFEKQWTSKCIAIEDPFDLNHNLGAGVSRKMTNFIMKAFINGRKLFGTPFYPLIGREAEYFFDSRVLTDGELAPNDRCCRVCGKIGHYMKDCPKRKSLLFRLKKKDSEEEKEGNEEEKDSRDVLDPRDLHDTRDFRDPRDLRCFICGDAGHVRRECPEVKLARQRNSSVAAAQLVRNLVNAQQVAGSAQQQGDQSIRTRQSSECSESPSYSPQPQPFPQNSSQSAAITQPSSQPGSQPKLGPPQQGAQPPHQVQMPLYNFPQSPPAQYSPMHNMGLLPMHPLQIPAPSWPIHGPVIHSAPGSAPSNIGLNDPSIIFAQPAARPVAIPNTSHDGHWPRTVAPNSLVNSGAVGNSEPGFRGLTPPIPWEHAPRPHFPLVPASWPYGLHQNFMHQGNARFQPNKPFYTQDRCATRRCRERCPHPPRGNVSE
# UniProt O95881: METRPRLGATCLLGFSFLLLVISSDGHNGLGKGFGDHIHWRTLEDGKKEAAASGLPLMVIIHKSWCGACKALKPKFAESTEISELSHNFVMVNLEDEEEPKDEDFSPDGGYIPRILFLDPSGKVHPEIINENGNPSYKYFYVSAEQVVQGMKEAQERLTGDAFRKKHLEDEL
# UniProt Q9NX01: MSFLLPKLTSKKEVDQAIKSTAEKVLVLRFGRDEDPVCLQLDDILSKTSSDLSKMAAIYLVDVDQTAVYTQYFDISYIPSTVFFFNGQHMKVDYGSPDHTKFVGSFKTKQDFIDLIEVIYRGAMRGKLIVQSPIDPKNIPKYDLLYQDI
# UniProt Q9NPD8: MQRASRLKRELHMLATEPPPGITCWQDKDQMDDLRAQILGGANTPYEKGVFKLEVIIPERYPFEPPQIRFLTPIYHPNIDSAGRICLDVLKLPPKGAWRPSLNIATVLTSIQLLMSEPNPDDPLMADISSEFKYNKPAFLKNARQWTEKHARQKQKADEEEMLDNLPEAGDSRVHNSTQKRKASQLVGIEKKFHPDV
# UniProt Q9NZI7: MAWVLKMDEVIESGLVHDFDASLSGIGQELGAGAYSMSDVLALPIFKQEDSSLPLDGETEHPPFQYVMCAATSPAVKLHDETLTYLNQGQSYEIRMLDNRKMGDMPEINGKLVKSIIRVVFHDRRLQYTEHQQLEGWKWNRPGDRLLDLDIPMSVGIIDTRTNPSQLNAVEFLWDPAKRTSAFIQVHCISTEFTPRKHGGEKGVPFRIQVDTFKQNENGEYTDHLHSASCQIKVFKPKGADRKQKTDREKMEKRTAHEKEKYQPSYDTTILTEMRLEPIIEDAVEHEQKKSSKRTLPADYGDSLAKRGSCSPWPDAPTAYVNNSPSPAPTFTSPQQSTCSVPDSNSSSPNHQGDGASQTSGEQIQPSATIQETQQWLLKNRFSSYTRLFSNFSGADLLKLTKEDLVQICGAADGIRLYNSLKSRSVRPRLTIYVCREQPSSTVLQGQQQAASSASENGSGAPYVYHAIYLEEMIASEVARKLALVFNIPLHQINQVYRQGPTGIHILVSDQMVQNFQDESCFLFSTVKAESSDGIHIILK
# UniProt Q9C0C9: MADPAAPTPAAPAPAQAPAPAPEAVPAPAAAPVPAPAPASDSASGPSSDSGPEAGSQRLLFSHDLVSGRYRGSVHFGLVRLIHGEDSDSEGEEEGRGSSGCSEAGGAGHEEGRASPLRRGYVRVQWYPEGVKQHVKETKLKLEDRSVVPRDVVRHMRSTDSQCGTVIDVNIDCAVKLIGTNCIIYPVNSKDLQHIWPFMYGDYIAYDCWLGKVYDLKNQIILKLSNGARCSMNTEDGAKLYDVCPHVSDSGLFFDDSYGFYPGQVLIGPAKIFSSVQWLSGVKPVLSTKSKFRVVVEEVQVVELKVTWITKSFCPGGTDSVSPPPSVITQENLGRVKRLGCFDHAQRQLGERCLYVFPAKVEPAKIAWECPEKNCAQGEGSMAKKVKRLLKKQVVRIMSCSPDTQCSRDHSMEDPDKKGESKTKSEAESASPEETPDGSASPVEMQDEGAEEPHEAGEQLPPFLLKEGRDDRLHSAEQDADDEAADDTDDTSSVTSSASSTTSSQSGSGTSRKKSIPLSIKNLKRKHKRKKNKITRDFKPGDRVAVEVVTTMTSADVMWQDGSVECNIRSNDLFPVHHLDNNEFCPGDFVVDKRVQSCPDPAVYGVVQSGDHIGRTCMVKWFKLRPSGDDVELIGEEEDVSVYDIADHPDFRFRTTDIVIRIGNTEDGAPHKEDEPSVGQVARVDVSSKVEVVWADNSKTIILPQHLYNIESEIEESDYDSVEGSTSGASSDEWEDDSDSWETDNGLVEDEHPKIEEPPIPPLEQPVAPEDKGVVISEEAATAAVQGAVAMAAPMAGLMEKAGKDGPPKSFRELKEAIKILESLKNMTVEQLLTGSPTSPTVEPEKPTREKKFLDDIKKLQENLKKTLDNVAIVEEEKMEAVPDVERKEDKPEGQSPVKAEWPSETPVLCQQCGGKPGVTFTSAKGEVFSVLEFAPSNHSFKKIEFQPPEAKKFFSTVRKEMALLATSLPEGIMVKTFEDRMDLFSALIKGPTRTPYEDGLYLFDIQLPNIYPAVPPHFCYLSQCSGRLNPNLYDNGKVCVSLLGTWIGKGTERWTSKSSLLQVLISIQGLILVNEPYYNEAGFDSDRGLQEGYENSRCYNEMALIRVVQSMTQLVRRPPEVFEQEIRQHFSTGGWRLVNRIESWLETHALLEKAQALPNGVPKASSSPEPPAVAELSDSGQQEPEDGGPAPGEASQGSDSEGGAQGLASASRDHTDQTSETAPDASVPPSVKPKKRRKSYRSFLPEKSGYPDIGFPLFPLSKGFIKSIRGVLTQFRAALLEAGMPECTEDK
# UniProt A6NHL2: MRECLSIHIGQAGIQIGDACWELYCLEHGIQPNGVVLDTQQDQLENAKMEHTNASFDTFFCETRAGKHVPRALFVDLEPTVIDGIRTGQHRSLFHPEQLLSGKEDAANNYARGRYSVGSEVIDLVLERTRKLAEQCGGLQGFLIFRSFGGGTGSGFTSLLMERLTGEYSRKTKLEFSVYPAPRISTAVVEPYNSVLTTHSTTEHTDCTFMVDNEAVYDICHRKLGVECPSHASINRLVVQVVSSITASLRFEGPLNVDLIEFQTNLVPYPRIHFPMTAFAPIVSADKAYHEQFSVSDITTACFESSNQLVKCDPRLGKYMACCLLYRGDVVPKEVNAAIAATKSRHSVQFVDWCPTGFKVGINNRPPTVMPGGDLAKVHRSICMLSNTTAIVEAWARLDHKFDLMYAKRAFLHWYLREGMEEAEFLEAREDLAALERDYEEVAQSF
# Some of the results follow.
# Legend:
# Experiment in all cases: log2 fold change, soluble protein after heating vs DMSO (PISA); higher = thermal stabilisation; K562 lysate, 10 uM; active = over 0.2 and 3.5 SD of the protein, either way, in both replicates (recomputed)
# [1] = compound: NCC(=O)Nc1ccc(-n2nc(C(F)(F)F)cc2-c2ccc3c(ccc4ccccc43)c2)cc1
# Method in brief: (§1)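 Following dounce homogenisation of K562 pellets in PBS pH 7.4 with 1 mM MgCl2, crude extract at 1 mg/mL protein was incubated for 30 min with 10 μM compound. Aliquots were then heated for 3 min over 48°C-58°C and pooled, NP-40 was added to 0.5% at 4°C, and soluble protein was recovered as the supernatant at 21,000xg for 90 min. Channel-sum-equalised TMTpro 16plex LC-MS/MS quantified this protein. Each value, from duplicates, is a log-two fold change in thermal stability relative to solvent controls.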
# vorinostat = compound: O=C(CCCCCCC(=O)Nc1ccccc1)NO [vorinostat]
# Method in brief: as §1
# silmitasertib = compound: O=C(O)c1ccc2c(c1)nc(Nc1cccc(Cl)c1)c1ccncc12 [silmitasertib]
# Method in brief: as §1
# [2] = compound: O=C1NC(=O)C(c2cnc3ccccn23)=C1c1cn2c3c(cc(F)cc13)CN(C(=O)N1CCCCC1)CC2
# Method in brief: as §1
# entospletinib = compound: c1cn2cc(-c3ccc4cn[nH]c4c3)nc(Nc3ccc(N4CCOCC4)cc3)c2n1 [entospletinib]
# Method in brief: as §1
Target,log2 fold change [1],log2 fold change (vorinostat),log2 fold change (silmitasertib),log2 fold change [2],log2 fold change (entospletinib)
UBE2K (UniProt P61086),inactive: -0.015,inactive: 0.11,inactive: -0.018,inactive: 0.009,inactive: -0.002
UBE4B isoform 4 (UniProt O95155),inactive: 0.008,inactive: -0.095,inactive: 0.013,inactive: 0.005,inactive: -0.012
TXNDC17 (UniProt Q9BRA2),inactive: -0.021,inactive: 0.174,inactive: 0,inactive: 0.01,inactive: 0.007
TUBA1C (UniProt Q9BQE3),inactive: 0.019,active: -0.256,inactive: 0.013,inactive: 0.006,inactive: -0.014
TUBB1 (UniProt Q9H4B7),inactive: -0.038,active: -0.326,inactive: -0.003,inactive: 0.033,inactive: 0.011
TUT4 (UniProt Q5TAX3),inactive: 0.072,active: -0.398,inactive: 0.018,inactive: -0.048,inactive: -0.029
TXNDC12 (UniProt O95881),inactive: -0.02,inactive: 0.088,inactive: 0.012,inactive: -0.001,inactive: -0.009
TXNL4B (UniProt Q9NX01),inactive: -0.055,inactive: 0.099,inactive: 0.007,inactive: -0.025,inactive: 0.009
UBE2T (UniProt Q9NPD8),inactive: 0.031,inactive: -0.09,inactive: 0.033,inactive: -0.005,inactive: 0.013
UBP1 (UniProt Q9NZI7),inactive: -0.002,inactive: -0.182,inactive: 0.008,inactive: -0.01,inactive: -0.002
TUBB4A (UniProt M0QYM7),inactive: 0.128,inactive: -0.431,inactive: 0.01,inactive: -0.062,inactive: 0.032
UBA1 (UniProt P22314),inactive: 0.018,active: -0.371,inactive: 0.01,inactive: -0.003,inactive: 0.02
UBE2O (UniProt Q9C0C9),inactive: 0.086,inactive: 0.003,inactive: -0.025,inactive: 0.017,inactive: -0.002
TUBAL3 (UniProt A6NHL2),inactive: 0.083,inactive: -0.195,inactive: 0.069,–,inactive: -0.026

# A run of entries taken from the entries so far, as a working copy:
Target,log2 fold change [1],log2 fold change (vorinostat),log2 fold change (silmitasertib),log2 fold change [2],log2 fold change (entospletinib)
TUBA1C (UniProt Q9BQE3),inactive: 0.019,active: -0.256,inactive: 0.013,inactive: 0.006,inactive: -0.014
TUBB1 (UniProt Q9H4B7),inactive: -0.038,active: -0.326,inactive: -0.003,inactive: 0.033,inactive: 0.011
TUT4 (UniProt Q5TAX3),inactive: 0.072,active: -0.398,inactive: 0.018,inactive: -0.048,inactive: -0.029
